Data published in PMC5580309 (Chemical Science, 2015).
Strings that start with PEPTIDE1 are HELM notation: dots part the residues, brackets hold end groups and non-standard residues.

experiment: general procedure: Fmoc solid-phase peptide synthesis; conditions: whole synthesis

Substance	isolated yield
PEPTIDE1{T.Q.[Ser_GlcNAca].H.Y.G.Q.C.G.G.I.G.Y.S.G.P.T.V.C.A.S.G.T.T.C.Q.V.L.N.P.Y.Y.S.Q.C.L}$PEPTIDE1,PEPTIDE1,8:R3-25:R3|PEPTIDE1,PEPTIDE1,19:R3-35:R3$$$V2.0	18%
PEPTIDE1{T.Q.[Ser(Mana)].A.Y.G.Q.C.G.G.I.G.Y.S.G.P.T.V.C.A.S.G.T.T.C.Q.V.L.N.P.Y.Y.S.Q.C.L}$PEPTIDE1,PEPTIDE1,8:R3-25:R3|PEPTIDE1,PEPTIDE1,19:R3-35:R3$$$V2.0	13%
PEPTIDE1{T.Q.[Ser_GlcNAcb].H.Y.G.Q.C.G.G.I.G.Y.S.G.P.T.V.C.A.S.G.T.T.C.Q.V.L.N.P.Y.Y.S.Q.C.L}$PEPTIDE1,PEPTIDE1,8:R3-25:R3|PEPTIDE1,PEPTIDE1,19:R3-35:R3$$$V2.0	7%
PEPTIDE1{T.Q.[Ser_Glca6Mana].H.Y.G.Q.C.G.G.I.G.Y.S.G.P.T.V.C.A.S.G.T.T.C.Q.V.L.N.P.Y.Y.S.Q.C.L}$PEPTIDE1,PEPTIDE1,8:R3-25:R3|PEPTIDE1,PEPTIDE1,19:R3-35:R3$$$V2.0	19%
PEPTIDE1{T.Q.[Ser_Man6Pa2Mana].H.Y.G.Q.C.G.G.I.G.Y.S.G.P.T.V.C.A.S.G.T.T.C.Q.V.L.N.P.Y.Y.S.Q.C.L}$PEPTIDE1,PEPTIDE1,8:R3-25:R3|PEPTIDE1,PEPTIDE1,19:R3-35:R3$$$V2.0	11%
PEPTIDE1{T.Q.[Ser_Mana6Mana].H.Y.G.Q.C.G.G.I.G.Y.S.G.P.T.V.C.A.S.G.T.T.C.Q.V.L.N.P.Y.Y.S.Q.C.L}$PEPTIDE1,PEPTIDE1,8:R3-25:R3|PEPTIDE1,PEPTIDE1,19:R3-35:R3$$$V2.0	22%
PEPTIDE1{T.Q.[Thr(Mana)].H.Y.G.Q.C.G.G.I.G.Y.S.G.P.T.V.C.A.S.G.T.T.C.Q.V.L.N.P.Y.Y.S.Q.C.L}$PEPTIDE1,PEPTIDE1,8:R3-25:R3|PEPTIDE1,PEPTIDE1,19:R3-35:R3$$$V2.0	16%
PEPTIDE1{T.Q.T.H.Y.G.Q.C.G.G.I.G.Y.S.G.P.T.V.C.A.S.G.T.T.C.Q.V.L.N.P.Y.Y.S.Q.C.L}$PEPTIDE1,PEPTIDE1,8:R3-25:R3|PEPTIDE1,PEPTIDE1,19:R3-35:R3$$$V2.0	23%
PEPTIDE1{T.Q.[dS].H.Y.G.Q.C.G.G.I.G.Y.S.G.P.T.V.C.A.S.G.T.T.C.Q.V.L.N.P.Y.Y.S.Q.C.L}$PEPTIDE1,PEPTIDE1,8:R3-25:R3|PEPTIDE1,PEPTIDE1,19:R3-35:R3$$$V2.0	22%
PEPTIDE1{T.Q.[Ser_GalNAca].H.Y.G.Q.C.G.G.I.G.Y.S.G.P.T.V.C.A.S.G.T.T.C.Q.V.L.N.P.Y.Y.S.Q.C.L}$PEPTIDE1,PEPTIDE1,8:R3-25:R3|PEPTIDE1,PEPTIDE1,19:R3-35:R3$$$V2.0	20%
PEPTIDE1{T.Q.S.H.A.G.Q.C.G.G.I.G.Y.S.G.P.T.V.C.A.S.G.T.T.C.Q.V.L.N.P.Y.Y.S.Q.C.L}$PEPTIDE1,PEPTIDE1,8:R3-25:R3|PEPTIDE1,PEPTIDE1,19:R3-35:R3$$$V2.0	12%
PEPTIDE1{T.Q.[Ser_Glcb].H.Y.G.Q.C.G.G.I.G.Y.S.G.P.T.V.C.A.S.G.T.T.C.Q.V.L.N.P.Y.Y.S.Q.C.L}$PEPTIDE1,PEPTIDE1,8:R3-25:R3|PEPTIDE1,PEPTIDE1,19:R3-35:R3$$$V2.0	15%
PEPTIDE1{T.Q.[D-Ser(Mana)].H.Y.G.Q.C.G.G.I.G.Y.S.G.P.T.V.C.A.S.G.T.T.C.Q.V.L.N.P.Y.Y.S.Q.C.L}$PEPTIDE1,PEPTIDE1,8:R3-25:R3|PEPTIDE1,PEPTIDE1,19:R3-35:R3$$$V2.0	8%
PEPTIDE1{T.A.S.H.Y.G.Q.C.G.G.I.G.Y.S.G.P.T.V.C.A.S.G.T.T.C.Q.V.L.N.P.Y.Y.S.Q.C.L}$PEPTIDE1,PEPTIDE1,8:R3-25:R3|PEPTIDE1,PEPTIDE1,19:R3-35:R3$$$V2.0	30%
PEPTIDE1{T.Q.[Ser(Man6Pa)].H.Y.G.Q.C.G.G.I.G.Y.S.G.P.T.V.C.A.S.G.T.T.C.Q.V.L.N.P.Y.Y.S.Q.C.L}$PEPTIDE1,PEPTIDE1,8:R3-25:R3|PEPTIDE1,PEPTIDE1,19:R3-35:R3$$$V2.0	6% for 20%
PEPTIDE1{A.Q.S.H.Y.G.Q.C.G.G.I.G.Y.S.G.P.T.V.C.A.S.G.T.T.C.Q.V.L.N.P.Y.Y.S.Q.C.L}$PEPTIDE1,PEPTIDE1,8:R3-25:R3|PEPTIDE1,PEPTIDE1,19:R3-35:R3$$$V2.0	28%
PEPTIDE1{T.Q.[Ser_Fuca].H.Y.G.Q.C.G.G.I.G.Y.S.G.P.T.V.C.A.S.G.T.T.C.Q.V.L.N.P.Y.Y.S.Q.C.L}$PEPTIDE1,PEPTIDE1,8:R3-25:R3|PEPTIDE1,PEPTIDE1,19:R3-35:R3$$$V2.0	26%
PEPTIDE1{T.Q.[Ser(Mana)].H.A.G.Q.C.G.G.I.G.Y.S.G.P.T.V.C.A.S.G.T.T.C.Q.V.L.N.P.Y.Y.S.Q.C.L}$PEPTIDE1,PEPTIDE1,8:R3-25:R3|PEPTIDE1,PEPTIDE1,19:R3-35:R3$$$V2.0	13%
PEPTIDE1{T.Q.[Cys_Mana2Mana].H.Y.G.Q.C.G.G.I.G.Y.S.G.P.T.V.C.A.S.G.T.T.C.Q.V.L.N.P.Y.Y.S.Q.C.L}$PEPTIDE1,PEPTIDE1,8:R3-25:R3|PEPTIDE1,PEPTIDE1,19:R3-35:R3$$$V2.0	14%
PEPTIDE1{T.Q.[Cys(Mana)].H.Y.G.Q.C.G.G.I.G.Y.S.G.P.T.V.C.A.S.G.T.T.C.Q.V.L.N.P.Y.Y.S.Q.C.L}$PEPTIDE1,PEPTIDE1,8:R3-25:R3|PEPTIDE1,PEPTIDE1,19:R3-35:R3$$$V2.0	16%
PEPTIDE1{T.Q.[Ser_Galb].H.Y.G.Q.C.G.G.I.G.Y.S.G.P.T.V.C.A.S.G.T.T.C.Q.V.L.N.P.Y.Y.S.Q.C.L}$PEPTIDE1,PEPTIDE1,8:R3-25:R3|PEPTIDE1,PEPTIDE1,19:R3-35:R3$$$V2.0	24%
PEPTIDE1{T.Q.[Ser_Gala].H.Y.G.Q.C.G.G.I.G.Y.S.G.P.T.V.C.A.S.G.T.T.C.Q.V.L.N.P.Y.Y.S.Q.C.L}$PEPTIDE1,PEPTIDE1,8:R3-25:R3|PEPTIDE1,PEPTIDE1,19:R3-35:R3$$$V2.0	13%
PEPTIDE1{T.A.[Ser(Mana)].H.Y.G.Q.C.G.G.I.G.Y.S.G.P.T.V.C.A.S.G.T.T.C.Q.V.L.N.P.Y.Y.S.Q.C.L}$PEPTIDE1,PEPTIDE1,8:R3-25:R3|PEPTIDE1,PEPTIDE1,19:R3-35:R3$$$V2.0	17%
PEPTIDE1{T.Q.C.H.Y.G.Q.C.G.G.I.G.Y.S.G.P.T.V.C.A.S.G.T.T.C.Q.V.L.N.P.Y.Y.S.Q.C.L}$PEPTIDE1,PEPTIDE1,8:R3-25:R3|PEPTIDE1,PEPTIDE1,19:R3-35:R3$$$V2.0	13%
PEPTIDE1{T.Q.[Ser_ManNAca].H.Y.G.Q.C.G.G.I.G.Y.S.G.P.T.V.C.A.S.G.T.T.C.Q.V.L.N.P.Y.Y.S.Q.C.L}$PEPTIDE1,PEPTIDE1,8:R3-25:R3|PEPTIDE1,PEPTIDE1,19:R3-35:R3$$$V2.0	16%
PEPTIDE1{A.Q.[Ser(Mana)].H.Y.G.Q.C.G.G.I.G.Y.S.G.P.T.V.C.A.S.G.T.T.C.Q.V.L.N.P.Y.Y.S.Q.C.L}$PEPTIDE1,PEPTIDE1,8:R3-25:R3|PEPTIDE1,PEPTIDE1,19:R3-35:R3$$$V2.0	18%
PEPTIDE1{T.Q.[Ser_Mana2Mana].H.A.G.Q.C.G.G.I.G.Y.S.G.P.T.V.C.A.S.G.T.T.C.Q.V.L.N.P.Y.Y.S.Q.C.L}$PEPTIDE1,PEPTIDE1,8:R3-25:R3|PEPTIDE1,PEPTIDE1,19:R3-35:R3$$$V2.0	6%
PEPTIDE1{T.Q.[Thr_Mana2Mana].H.Y.G.Q.C.G.G.I.G.Y.S.G.P.T.V.C.A.S.G.T.T.C.Q.V.L.N.P.Y.Y.S.Q.C.L}$PEPTIDE1,PEPTIDE1,8:R3-25:R3|PEPTIDE1,PEPTIDE1,19:R3-35:R3$$$V2.0	7%
PEPTIDE1{T.Q.S.A.Y.G.Q.C.G.G.I.G.Y.S.G.P.T.V.C.A.S.G.T.T.C.Q.V.L.N.P.Y.Y.S.Q.C.L}$PEPTIDE1,PEPTIDE1,8:R3-25:R3|PEPTIDE1,PEPTIDE1,19:R3-35:R3$$$V2.0	15%
